Source: doi:10.1101/2022.12.16.520777

Key:
[1] = biological target: T1, BAM1-RFP (BARELY ANY MERISTEM 1) (UniProt O49545); assay: co-IP
T1 sequence: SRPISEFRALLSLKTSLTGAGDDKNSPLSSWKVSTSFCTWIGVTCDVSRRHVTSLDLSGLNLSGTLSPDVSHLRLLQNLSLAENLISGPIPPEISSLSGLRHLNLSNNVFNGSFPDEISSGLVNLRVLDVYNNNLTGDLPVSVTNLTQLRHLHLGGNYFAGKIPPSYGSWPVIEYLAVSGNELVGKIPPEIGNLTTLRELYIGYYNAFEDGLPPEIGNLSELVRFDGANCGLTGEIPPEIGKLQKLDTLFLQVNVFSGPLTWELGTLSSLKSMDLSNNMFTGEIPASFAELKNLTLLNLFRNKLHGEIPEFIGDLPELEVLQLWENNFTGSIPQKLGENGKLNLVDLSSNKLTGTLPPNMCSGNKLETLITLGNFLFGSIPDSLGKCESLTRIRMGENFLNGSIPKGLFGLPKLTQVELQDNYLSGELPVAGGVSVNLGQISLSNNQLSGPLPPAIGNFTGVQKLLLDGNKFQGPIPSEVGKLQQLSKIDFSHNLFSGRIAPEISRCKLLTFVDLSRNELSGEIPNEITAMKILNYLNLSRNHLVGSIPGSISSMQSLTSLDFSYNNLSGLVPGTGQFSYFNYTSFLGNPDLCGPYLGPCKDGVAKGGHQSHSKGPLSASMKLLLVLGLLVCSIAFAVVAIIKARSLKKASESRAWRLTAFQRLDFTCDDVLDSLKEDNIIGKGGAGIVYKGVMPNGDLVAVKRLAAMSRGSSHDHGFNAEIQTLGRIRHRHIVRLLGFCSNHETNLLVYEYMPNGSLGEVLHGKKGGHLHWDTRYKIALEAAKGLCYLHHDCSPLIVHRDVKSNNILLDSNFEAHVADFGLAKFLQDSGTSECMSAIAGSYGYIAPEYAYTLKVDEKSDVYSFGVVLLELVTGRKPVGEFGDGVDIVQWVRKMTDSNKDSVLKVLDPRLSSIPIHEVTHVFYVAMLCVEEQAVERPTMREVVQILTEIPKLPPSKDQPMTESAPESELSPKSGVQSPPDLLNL

CLV1-RFP (CLAVATA 1) [2] = biological target: T2, CLV1-RFP (CLAVATA 1) (UniProt Q9SYQ8); assay: co-IP
T2 sequence: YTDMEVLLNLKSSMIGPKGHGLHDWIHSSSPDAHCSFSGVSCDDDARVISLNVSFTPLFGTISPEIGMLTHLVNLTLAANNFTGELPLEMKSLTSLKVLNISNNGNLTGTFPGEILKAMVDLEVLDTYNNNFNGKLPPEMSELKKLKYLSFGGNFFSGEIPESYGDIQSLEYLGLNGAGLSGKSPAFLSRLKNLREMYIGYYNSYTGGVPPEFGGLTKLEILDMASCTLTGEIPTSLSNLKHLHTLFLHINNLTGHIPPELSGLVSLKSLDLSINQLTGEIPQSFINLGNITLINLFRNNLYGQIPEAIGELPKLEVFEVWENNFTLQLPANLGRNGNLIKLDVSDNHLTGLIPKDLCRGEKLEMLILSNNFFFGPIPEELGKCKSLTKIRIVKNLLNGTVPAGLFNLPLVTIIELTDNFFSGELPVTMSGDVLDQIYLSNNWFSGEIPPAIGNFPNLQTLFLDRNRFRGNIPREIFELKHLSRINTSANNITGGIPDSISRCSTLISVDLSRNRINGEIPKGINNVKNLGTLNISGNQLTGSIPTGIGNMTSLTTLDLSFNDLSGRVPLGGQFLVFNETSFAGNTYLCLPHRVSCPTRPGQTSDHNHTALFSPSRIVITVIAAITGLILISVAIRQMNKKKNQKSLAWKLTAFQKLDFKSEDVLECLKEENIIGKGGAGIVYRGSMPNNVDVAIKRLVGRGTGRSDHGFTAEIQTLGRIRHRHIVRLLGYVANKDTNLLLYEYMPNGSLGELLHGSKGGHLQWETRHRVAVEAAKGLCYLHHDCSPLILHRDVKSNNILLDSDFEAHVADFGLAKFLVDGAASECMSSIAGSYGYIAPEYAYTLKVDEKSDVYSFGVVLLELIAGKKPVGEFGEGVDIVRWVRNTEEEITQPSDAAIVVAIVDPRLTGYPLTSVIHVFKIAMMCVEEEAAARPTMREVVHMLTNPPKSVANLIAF

[3] = biological target: T1, BAM1-RFP (BARELY ANY MERISTEM 1); assay: FRET or BRET
CLV1-RFP (CLAVATA 1) [4] = biological target: T2, CLV1-RFP (CLAVATA 1); assay: FRET or BRET

Measured: binding

C4-GFP (C4 from TYLCV)
binds: all assays above

These are yes or no findings as the source states them, for the method shown. Binding seen in cells or lysates may run through a third protein. A result given as binding can be weak or reduced; the word gives no strength.
